Record: PubChem BioAssay AID1671195 (Yale University, 2021)

Screen: 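Regulators of LDL receptor activity judged by labelled LDL uptake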 (primary screen)
Cell system: human Huh7 hepatoma cells
Knock-down reagent: siRNA pool against human genes, 18 nM
Timing: about 2 to 2.5 days of knockdown, then 8 h LDL uptake
Challenge: DiI-labelled LDL at 30 µg/ml for 8 h, in lipoprotein-deficient serum medium
Read-out: 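Per-cell DiI-LDL intensity by automated imaging; well means scaled to the plate median and given as a robust z-score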
Direction: robust z-score: higher = more LDL uptake after knockdown
Hit rule: 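Active when two or more replicates show a robust z-score above 2 or below -2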
This is one part, drawn at random, of about 22,000 reagents. Over the whole deposit, about 1,510 (6.9%) got an active call. 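Active includes knockdowns raising or lowering LDL uptake; positive z-scores mean more uptake, negative mean less.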 Reagents against one gene are numbered here.

| target | pool no. | robust z-score, replicate 1 | robust z-score, replicate 2 | robust z-score, replicate 3 | call |
| --- | --- | --- | --- | --- | --- |
| TFAP2A (transcription factor AP-2 alpha) | 1 | -0.139 | 0.00322 | 0.156 | inactive |
| DHX40 (DEAH-box helicase 40) | 1 | 0.344 | 1.18 | 0.677 | inactive |
| TESK1 (testis associated actin remodelling kinase 1) | 1 | 0.101 | 0.171 | -0.152 | inactive |
| BFSP2 (beaded filament structural protein 2) | 1 | -1.63 | -1.49 | -2.48 | inactive |
| GAPDHP23 (glyceraldehyde 3 phosphate dehydrogenase pseudogene 23) | 1 | -2.11 | -2.18 | -2.02 | active |
| ZNF596 (zinc finger protein 596) | 1 | -1.37 | -1.36 | -0.737 | inactive |
| LOC440160 (retired record) | 1 | 1.64 | 1.62 | 2.07 | inactive |
| LOC284527 (retired record) | 1 | -1.16 | -1.24 | -0.999 | inactive |
| APOL3 (apolipoprotein L3) | 1 | 0.178 | 1.05 | 0.948 | inactive |
| RPL26P13 (ribosomal protein L26 pseudogene 13) | 1 | -1.16 | -0.721 | -0.81 | inactive |
| C5orf34 (chromosome 5 open reading frame 34) | 1 | 0.0183 | 0.0413 | 0.429 | inactive |
| RRAGD (Ras related GTP binding D) | 1 | -1.07 | 0.106 | -0.603 | inactive |
| ADGRE5 (adhesion G protein-coupled receptor E5) | 1 | 0.702 | 1.27 | 0.939 | inactive |
| COL16A1 (collagen type XVI alpha 1 chain) | 1 | 1.13 | 1.75 | 1.58 | inactive |
| CEP63 (centrosomal protein 63) | 1 | 1.24 | 0.867 | 0.898 | inactive |
| HCG22 (HLA complex group 22) | 1 | -1.71 | -1.35 | -1.55 | inactive |
| C20orf144 (chromosome 20 open reading frame 144) | 1 | 1.09 | -0.421 | 0.138 | inactive |
| KRT18P41 (keratin 18 pseudogene 41) | 1 | 1.21 | 0.465 | 1.27 | inactive |
| LOC387937 (retired record) | 1 | 0.244 | -0.147 | -0.0847 | inactive |
| COX6C (cytochrome c oxidase subunit 6C) | 1 | 1.39 | 1.5 | -2.56 | inactive |
| PTPRF (protein tyrosine phosphatase receptor type F) | 1 | 0.158 | 0.333 | 0.479 | inactive |
| TMEM202 (transmembrane protein 202) | 1 | 1.04 | 1.52 | 1.5 | inactive |
| SNRPC (small nuclear ribonucleoprotein polypeptide C) | 1 | -0.321 | 1.25 | 0.163 | inactive |
| RUSC1-AS1 (RUSC1 antisense RNA 1) | 1 | -0.124 | -0.481 | -0.572 | inactive |
| ADIPOQ (adiponectin, C1Q and collagen domain containing) | 1 | -2.1 | -2.21 | -1.79 | active |
| PAPPA (pappalysin 1) | 1 | -1.13 | -1.22 | -1.38 | inactive |
| ALX3 (ALX homeobox 3) | 1 | -0.109 | -0.72 | -0.104 | inactive |
| CCL3 (C-C motif chemokine ligand 3) | 1 | 1.69 | 1.25 | 0.26 | inactive |
| MYO1B (myosin IB) | 1 | -0.306 | 0.697 | -1 | inactive |
| SNAPC4 (small nuclear RNA activating complex polypeptide 4) | 1 | -0.0236 | 0.0377 | -0.0623 | inactive |
| HIPK2 (homeodomain interacting protein kinase 2) | 1 | -1.01 | -0.459 | -0.0401 | inactive |
| HBD (hemoglobin subunit delta) | 1 | 1.73 | -0.267 | -2.43 | inactive |
| RPL13AP23 (ribosomal protein L13a pseudogene 23) | 1 | 2.07 | 2.32 | 2.1 | active |
| TLR3 (toll like receptor 3) | 1 | -0.86 | 0.143 | -1.47 | inactive |
| NDST4 (N-deacetylase and N-sulfotransferase 4) | 1 | 0.142 | -0.684 | 0.0686 | inactive |
| ERH (ERH mRNA splicing and mitosis factor) | 1 | 0.807 | 0.182 | 1.14 | inactive |
| SLF1 (SMC5/6 complex localization factor 1) | 1 | 3.28 | 1.74 | 1.59 | inactive |
| SLF1 (SMC5/6 complex localization factor 1) | 2 | -0.587 | -0.585 | -0.559 | inactive |
| GLI1 (GLI family zinc finger 1) | 1 | -1.83 | -1.42 | -1.56 | inactive |
| NRDE2 (NRDE-2, necessary for RNA interference, domain containing) | 1 | -0.00922 | -1.02 | 1.94 | inactive |
| KAT5 (lysine acetyltransferase 5) | 1 | -1.58 | -1.62 | -1.95 | inactive |
| FILIP1 (filamin A interacting protein 1) | 1 | -1.26 | 1.06 | 1.17 | inactive |
| ELOVL7 (ELOVL fatty acid elongase 7) | 1 | -2.09 | -1.74 | -1.75 | inactive |
| MRPL28 (mitochondrial ribosomal protein L28) | 1 | -0.505 | -0.862 | -0.829 | inactive |
| LOC389325 (retired record) | 1 | -0.69 | -0.492 | -0.403 | inactive |
| PDSS1 (decaprenyl diphosphate synthase subunit 1) | 1 | 1.44 | 0.731 | 1.65 | inactive |
| CXorf58 (chromosome X open reading frame 58) | 1 | -0.0728 | -0.111 | -0.0196 | inactive |
| CCDC73 (coiled-coil domain containing 73) | 1 | 0.332 | 0.131 | 0.0957 | inactive |
| CCDC138 (coiled-coil domain containing 138) | 1 | -0.113 | -1.07 | -1.21 | inactive |
| CD3G (CD3 gamma subunit of T-cell receptor complex) | 1 | 0.389 | -0.764 | 0.429 | inactive |
| ESM1 (endothelial cell specific molecule 1) | 1 | 0.592 | 0.243 | 2.98 | inactive |
| LOC440723 (retired record) | 1 | 1.31 | 2.37 | 1.84 | inactive |
| HLA-F-AS1 (HLA-F antisense RNA 1) | 1 | -0.337 | -0.202 | 0.0923 | inactive |
| GNPDA1 (glucosamine-6-phosphate deaminase 1) | 1 | -1.34 | -1.22 | -1.07 | inactive |
| MBD2 (methyl-CpG binding domain protein 2) | 1 | -0.892 | -0.602 | -0.871 | inactive |
| NDUFB11P1 (NADH:ubiquinone oxidoreductase subunit B11 pseudogene 1) | 1 | 0.82 | 0.992 | 0.686 | inactive |
| PABPC1 (poly(A) binding protein cytoplasmic 1) | 1 | -0.879 | -0.871 | -1.27 | inactive |
| SPCS2P1 (signal peptidase complex subunit 2 pseudogene 1) | 1 | 0.196 | 0.923 | 0.521 | inactive |
| ANKRD31 (ankyrin repeat domain 31) | 1 | 1.14 | 1.12 | 1.02 | inactive |
| C1orf167 (chromosome 1 open reading frame 167) | 1 | -1.21 | -0.886 | -1.06 | inactive |
| CNN2P9 (calponin 2 pseudogene 9) | 1 | 0.795 | 0.305 | -0.238 | inactive |
| LOC387903 (retired record) | 1 | -2.09 | -1.8 | -1.79 | inactive |
| MNDA (myeloid cell nuclear differentiation antigen) | 1 | -1.21 | -1.21 | -1.18 | inactive |
| LOC440264 (retired record) | 1 | -0.281 | -0.242 | -0.208 | inactive |
| MRPL35 (mitochondrial ribosomal protein L35) | 1 | 1.61 | -0.211 | -0.102 | inactive |
| ENO1 (enolase 1) | 1 | 1.48 | -0.139 | 1.43 | inactive |
| LOC401845 (retired record) | 1 | -1.26 | -0.652 | -0.524 | inactive |
| ACTRT3 (actin related protein T3) | 1 | -4.44 | 0.665 | 0.806 | inactive |
| VWA5B2 (von Willebrand factor A domain containing 5B2) | 1 | -0.0978 | -0.106 | 0.136 | inactive |
| CDH26 (cadherin 26) | 1 | -1.9 | -1.6 | -1.95 | inactive |
| FAM20A (FAM20A golgi associated secretory pathway pseudokinase) | 1 | 0.625 | -0.262 | 1.58 | inactive |
| CPXM1 (carboxypeptidase X, M14 family member 1) | 1 | 0.425 | -0.0759 | 0.512 | inactive |
| GCK (glucokinase) | 1 | 1.84 | 1.58 | 1.84 | inactive |
| CCDC57 (coiled-coil domain containing 57) | 1 | -0.046 | -0.209 | 0.524 | inactive |
| CCDC57 (coiled-coil domain containing 57) | 2 | -0.84 | -1.51 | -1.35 | inactive |
| CENPC (centromere protein C) | 1 | 0.531 | 0.893 | 0.592 | inactive |
| LOC442276 (retired record) | 1 | 0.45 | -0.155 | 0.883 | inactive |
| ARL6IP6 (ARF like GTPase 6 interacting protein 6) | 1 | -0.335 | 1.01 | 0.363 | inactive |
| WNT9B (Wnt family member 9B) | 1 | -0.377 | -0.0807 | -1.17 | inactive |
| NSUN5 (NOP2/Sun RNA methyltransferase 5) | 1 | 1.47 | 0.12 | 4.08 | inactive |
| POFUT3 (protein O-fucosyltransferase 3) | 1 | 0.097 | -0.265 | 0.329 | inactive |
| PROCR (protein C receptor) | 1 | 1.02 | 0.00893 | -0.964 | inactive |
| ZNF613 (zinc finger protein 613) | 1 | 3.33 | 2.36 | 2.66 | active |
| XKR9 (XK related 9) | 1 | -0.737 | -0.644 | -0.63 | inactive |
| AIM2 (absent in melanoma 2) | 1 | -1.09 | -1.14 | -2.27 | inactive |
| GABRQ (gamma-aminobutyric acid type A receptor subunit theta) | 1 | -0.294 | 0.822 | 0.0491 | inactive |
| RDH11 (retinol dehydrogenase 11) | 1 | -0.589 | -0.363 | -0.203 | inactive |

Targets above whose target name starts with H or h (4):
| target | pool no. | robust z-score, replicate 1 | robust z-score, replicate 2 | robust z-score, replicate 3 | call |
| --- | --- | --- | --- | --- | --- |
| HCG22 (HLA complex group 22) | 1 | -1.71 | -1.35 | -1.55 | inactive |
| HIPK2 (homeodomain interacting protein kinase 2) | 1 | -1.01 | -0.459 | -0.0401 | inactive |
| HBD (hemoglobin subunit delta) | 1 | 1.73 | -0.267 | -2.43 | inactive |
| HLA-F-AS1 (HLA-F antisense RNA 1) | 1 | -0.337 | -0.202 | 0.0923 | inactive |
